# Experimental data from the supplement of paper PMC12067093, “Discovery and optimisation of a covalent ligand for TRIM25 and its application to targeted protein ubiquitination” (Chemical Science, 2025).
# Amino acid sequences for entries named in this document (tags omitted). A change or cut given only in a name is not applied to a line headed by its entry.
# UniProt P11908: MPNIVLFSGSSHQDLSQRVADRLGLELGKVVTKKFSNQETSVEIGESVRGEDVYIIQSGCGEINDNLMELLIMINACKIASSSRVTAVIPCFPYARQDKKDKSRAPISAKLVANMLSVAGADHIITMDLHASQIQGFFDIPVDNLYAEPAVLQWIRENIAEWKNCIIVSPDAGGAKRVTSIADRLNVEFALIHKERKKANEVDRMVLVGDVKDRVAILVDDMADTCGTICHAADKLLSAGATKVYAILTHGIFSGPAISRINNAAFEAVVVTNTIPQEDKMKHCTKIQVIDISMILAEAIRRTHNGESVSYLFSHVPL
# UniProt P49643: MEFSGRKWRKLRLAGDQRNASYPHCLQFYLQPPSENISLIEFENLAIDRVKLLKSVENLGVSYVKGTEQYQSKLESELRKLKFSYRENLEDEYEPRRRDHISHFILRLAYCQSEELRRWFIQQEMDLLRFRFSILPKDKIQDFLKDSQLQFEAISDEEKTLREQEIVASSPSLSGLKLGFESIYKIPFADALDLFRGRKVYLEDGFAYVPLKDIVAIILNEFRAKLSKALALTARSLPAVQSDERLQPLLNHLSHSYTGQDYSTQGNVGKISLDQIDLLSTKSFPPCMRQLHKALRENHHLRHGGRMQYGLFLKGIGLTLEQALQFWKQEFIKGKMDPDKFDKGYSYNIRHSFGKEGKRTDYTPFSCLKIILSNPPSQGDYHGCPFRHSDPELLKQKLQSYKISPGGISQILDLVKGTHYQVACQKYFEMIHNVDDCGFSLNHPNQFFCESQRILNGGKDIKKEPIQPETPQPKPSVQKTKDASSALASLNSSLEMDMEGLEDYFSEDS
# UniProt P05771, whole entry, looked up: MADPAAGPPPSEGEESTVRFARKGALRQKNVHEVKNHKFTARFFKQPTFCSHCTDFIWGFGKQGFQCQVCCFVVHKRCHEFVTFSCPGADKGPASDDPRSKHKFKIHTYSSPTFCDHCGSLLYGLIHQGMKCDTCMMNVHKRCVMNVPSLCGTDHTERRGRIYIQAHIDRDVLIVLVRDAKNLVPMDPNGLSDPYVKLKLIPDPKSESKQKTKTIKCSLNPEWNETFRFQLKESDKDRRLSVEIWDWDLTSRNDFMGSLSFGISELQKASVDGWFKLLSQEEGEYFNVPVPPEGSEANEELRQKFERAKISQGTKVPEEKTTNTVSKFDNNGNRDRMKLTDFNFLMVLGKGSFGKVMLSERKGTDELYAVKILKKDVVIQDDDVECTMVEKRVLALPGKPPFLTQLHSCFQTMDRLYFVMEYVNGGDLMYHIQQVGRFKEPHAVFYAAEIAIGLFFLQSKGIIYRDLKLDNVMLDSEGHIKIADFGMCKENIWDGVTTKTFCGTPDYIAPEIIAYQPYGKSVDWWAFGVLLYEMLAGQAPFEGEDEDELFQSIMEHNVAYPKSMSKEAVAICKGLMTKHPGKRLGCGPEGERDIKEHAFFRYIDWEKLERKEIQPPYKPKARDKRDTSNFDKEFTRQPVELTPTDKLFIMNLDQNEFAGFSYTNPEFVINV
# UniProt O14744, whole entry, looked up: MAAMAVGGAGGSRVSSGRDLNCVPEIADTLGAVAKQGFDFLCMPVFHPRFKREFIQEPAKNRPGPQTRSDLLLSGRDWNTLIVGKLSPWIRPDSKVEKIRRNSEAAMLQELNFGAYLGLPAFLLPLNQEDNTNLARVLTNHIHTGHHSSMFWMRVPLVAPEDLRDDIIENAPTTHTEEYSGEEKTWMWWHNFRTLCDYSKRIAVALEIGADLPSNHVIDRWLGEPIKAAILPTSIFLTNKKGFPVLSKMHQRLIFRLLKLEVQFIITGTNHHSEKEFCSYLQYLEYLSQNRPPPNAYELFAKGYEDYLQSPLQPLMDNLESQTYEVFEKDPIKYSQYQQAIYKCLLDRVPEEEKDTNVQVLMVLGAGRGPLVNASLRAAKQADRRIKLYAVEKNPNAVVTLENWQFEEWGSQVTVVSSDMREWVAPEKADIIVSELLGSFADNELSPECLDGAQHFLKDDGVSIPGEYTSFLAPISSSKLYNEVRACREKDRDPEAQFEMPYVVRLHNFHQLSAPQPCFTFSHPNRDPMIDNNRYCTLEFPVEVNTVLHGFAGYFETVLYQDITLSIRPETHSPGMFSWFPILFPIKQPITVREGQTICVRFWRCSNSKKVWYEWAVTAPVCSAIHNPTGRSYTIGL
# UniProt P78527, whole entry, looked up: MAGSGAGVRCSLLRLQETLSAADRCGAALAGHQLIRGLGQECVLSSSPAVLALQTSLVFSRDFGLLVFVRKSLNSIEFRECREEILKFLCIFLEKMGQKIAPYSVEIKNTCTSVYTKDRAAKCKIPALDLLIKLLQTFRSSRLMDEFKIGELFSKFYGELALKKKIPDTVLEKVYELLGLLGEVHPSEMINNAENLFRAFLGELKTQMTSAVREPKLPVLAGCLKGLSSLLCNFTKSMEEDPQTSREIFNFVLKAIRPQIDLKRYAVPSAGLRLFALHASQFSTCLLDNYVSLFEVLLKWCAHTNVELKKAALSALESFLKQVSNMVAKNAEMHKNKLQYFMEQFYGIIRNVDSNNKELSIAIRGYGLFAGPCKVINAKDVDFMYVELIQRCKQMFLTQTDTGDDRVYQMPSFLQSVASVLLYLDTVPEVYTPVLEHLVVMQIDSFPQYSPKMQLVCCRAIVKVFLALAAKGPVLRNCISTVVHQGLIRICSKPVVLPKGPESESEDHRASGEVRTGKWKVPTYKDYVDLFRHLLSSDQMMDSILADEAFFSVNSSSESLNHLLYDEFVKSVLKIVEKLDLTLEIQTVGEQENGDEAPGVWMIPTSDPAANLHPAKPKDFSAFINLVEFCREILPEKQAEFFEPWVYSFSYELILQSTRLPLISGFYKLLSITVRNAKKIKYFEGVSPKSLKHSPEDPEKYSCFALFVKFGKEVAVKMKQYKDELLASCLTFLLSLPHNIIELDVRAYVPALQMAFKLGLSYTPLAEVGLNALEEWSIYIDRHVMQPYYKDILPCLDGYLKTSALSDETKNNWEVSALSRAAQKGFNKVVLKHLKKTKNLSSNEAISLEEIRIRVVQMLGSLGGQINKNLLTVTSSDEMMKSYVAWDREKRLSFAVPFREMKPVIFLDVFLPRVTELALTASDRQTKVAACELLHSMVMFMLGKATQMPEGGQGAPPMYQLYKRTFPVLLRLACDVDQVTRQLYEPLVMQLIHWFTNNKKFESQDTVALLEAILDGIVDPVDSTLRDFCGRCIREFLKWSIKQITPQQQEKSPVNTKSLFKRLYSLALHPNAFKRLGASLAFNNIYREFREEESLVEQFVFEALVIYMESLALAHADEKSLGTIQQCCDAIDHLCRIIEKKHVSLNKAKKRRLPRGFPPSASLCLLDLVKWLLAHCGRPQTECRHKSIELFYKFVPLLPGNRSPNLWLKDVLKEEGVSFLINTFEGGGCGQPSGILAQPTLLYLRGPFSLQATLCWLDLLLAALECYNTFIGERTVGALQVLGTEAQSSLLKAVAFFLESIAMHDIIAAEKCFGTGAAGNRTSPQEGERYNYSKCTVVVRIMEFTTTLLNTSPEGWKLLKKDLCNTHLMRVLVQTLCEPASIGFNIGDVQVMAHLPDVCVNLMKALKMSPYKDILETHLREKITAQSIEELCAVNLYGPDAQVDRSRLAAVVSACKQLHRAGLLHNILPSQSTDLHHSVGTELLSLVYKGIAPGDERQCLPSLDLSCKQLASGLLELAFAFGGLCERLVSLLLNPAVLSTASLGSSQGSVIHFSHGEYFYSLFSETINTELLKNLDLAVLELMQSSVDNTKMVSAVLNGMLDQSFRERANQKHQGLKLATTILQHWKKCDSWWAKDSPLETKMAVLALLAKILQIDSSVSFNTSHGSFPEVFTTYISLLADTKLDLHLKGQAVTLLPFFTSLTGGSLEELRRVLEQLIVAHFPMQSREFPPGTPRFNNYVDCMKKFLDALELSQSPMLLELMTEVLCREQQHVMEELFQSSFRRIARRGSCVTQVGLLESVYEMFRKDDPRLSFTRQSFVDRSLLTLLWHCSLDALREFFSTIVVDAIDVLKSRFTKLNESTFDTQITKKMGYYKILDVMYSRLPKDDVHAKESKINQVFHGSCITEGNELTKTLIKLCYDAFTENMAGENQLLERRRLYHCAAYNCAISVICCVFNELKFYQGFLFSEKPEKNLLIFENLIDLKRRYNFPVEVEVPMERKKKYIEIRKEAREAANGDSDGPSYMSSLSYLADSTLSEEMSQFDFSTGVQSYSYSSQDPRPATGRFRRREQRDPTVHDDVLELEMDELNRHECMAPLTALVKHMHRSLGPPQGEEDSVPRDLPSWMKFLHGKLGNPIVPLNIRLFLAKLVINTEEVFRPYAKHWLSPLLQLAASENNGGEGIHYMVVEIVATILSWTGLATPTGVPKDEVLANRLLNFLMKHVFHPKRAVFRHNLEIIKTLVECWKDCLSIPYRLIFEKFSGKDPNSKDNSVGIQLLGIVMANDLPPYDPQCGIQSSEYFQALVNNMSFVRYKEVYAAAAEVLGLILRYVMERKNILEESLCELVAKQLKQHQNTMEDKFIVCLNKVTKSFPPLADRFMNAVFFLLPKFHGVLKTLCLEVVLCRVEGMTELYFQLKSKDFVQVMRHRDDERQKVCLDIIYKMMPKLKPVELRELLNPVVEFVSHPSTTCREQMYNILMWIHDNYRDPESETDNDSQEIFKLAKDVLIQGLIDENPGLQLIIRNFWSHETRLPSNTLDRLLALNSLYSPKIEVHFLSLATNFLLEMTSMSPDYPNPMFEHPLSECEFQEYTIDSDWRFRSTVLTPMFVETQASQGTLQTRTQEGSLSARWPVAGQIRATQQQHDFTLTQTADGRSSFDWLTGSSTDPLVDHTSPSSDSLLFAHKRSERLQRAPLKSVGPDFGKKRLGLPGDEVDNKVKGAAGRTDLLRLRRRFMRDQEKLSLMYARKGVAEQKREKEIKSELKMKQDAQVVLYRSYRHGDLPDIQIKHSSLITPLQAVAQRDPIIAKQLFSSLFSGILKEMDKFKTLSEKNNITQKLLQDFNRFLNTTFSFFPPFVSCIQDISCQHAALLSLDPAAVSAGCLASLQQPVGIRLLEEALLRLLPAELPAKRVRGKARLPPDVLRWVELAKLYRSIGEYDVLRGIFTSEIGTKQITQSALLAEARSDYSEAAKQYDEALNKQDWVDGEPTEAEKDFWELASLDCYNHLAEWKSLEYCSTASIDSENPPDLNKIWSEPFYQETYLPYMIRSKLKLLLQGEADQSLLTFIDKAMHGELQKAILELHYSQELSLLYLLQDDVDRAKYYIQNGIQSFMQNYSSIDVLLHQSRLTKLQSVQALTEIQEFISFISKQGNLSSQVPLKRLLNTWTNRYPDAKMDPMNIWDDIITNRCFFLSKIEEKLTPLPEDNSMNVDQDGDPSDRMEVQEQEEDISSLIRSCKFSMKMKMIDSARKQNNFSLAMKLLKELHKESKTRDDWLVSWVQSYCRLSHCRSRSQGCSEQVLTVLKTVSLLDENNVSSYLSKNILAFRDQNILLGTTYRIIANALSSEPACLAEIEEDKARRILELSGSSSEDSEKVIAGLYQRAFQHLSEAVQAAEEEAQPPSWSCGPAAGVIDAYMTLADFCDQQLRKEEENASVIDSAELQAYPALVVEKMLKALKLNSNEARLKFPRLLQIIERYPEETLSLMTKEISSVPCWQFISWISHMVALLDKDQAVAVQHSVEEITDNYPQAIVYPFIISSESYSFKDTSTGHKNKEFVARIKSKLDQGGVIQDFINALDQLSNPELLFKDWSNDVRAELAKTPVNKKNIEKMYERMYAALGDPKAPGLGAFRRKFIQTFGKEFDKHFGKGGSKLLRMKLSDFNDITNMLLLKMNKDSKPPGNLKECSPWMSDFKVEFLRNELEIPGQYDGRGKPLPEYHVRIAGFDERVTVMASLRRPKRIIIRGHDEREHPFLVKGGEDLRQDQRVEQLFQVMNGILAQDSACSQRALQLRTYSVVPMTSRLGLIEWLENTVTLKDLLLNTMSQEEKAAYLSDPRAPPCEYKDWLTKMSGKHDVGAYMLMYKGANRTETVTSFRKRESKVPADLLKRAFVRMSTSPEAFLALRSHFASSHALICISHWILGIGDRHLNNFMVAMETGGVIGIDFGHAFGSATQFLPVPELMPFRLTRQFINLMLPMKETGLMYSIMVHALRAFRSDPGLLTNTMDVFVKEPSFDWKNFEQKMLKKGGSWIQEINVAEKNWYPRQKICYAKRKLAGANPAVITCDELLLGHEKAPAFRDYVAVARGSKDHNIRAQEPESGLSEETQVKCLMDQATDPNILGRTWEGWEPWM
# UniProt O75569: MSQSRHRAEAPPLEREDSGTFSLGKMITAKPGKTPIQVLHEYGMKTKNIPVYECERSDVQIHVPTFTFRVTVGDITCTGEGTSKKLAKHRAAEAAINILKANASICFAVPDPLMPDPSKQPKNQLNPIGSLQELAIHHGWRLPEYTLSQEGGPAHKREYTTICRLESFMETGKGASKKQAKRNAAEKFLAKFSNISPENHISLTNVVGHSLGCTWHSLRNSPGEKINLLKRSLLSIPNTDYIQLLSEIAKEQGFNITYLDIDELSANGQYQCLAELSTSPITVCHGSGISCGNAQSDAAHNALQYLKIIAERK
# The other results are listed elsewhere or left out.
# Compound: Cc1cc(ccc1-c1ccccc1)C(=O)N1CCCN(CC1)C(=O)CCl [compound 10]
# Test: probe-labelled cysteine peptide fold change vs DMSO (competition) (log2 fold change); higher = less target engagement (more negative = stronger competition)
# Conditions: THP-1, incubation time: 4 h
# 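Note: competitive profiling in live THP-1 cells: cysteine peptides tagged with an iodoacetamide desthiobiotin (IA-DTB) probe, intensity after compound treatment relative to DMSO-treated cells.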
Target,probe-labelled cysteine peptide fold change (10 µM),probe-labelled cysteine peptide fold change (50 µM)
PRMT9_Q6P2P2_290_GESANCEK (UniProt Q6P2P2),-0.112,-0.0837
PRPS2_P11908_230_DRVAILVDDMADTCGTICHAADK (UniProt P11908),0.48,-0.309
PRKCD_Q05655_344_CNINNFIFHK (UniProt Q05655),-0.471,-0.223
PRPF19_Q9UMS4_355_VTDETSGCSLTCAQFHPDGLIFGTGTMDSQIK (UniProt Q9UMS4),0.114,-0.223
PRPF3_O43395_630_CVLVWEGTAK (UniProt O43395),-0.0988,-0.177
PRIM2_P49643_367_RTDYTPFSCLK (UniProt P49643),0.0621,-0.0448
PRKCB_P05771_386_DVVIQDDDVECTMVEK (UniProt P05771),0.0259,0.242
PRR14L_Q5THK1_1503_AQDPSSAGCDQIHGAFAK (UniProt Q5THK1),-0.388,-1.59
PRMT5_O14744_518_LHNFHQLSAPQPCFTFSHPNR (UniProt O14744),-0.036,0.18
PRKDC_P78527_1507_QCLPSLDLSCK (UniProt P78527),0.0976,-1.07
PRPF8_Q6P2Q9_2223_TIIITCSFTPGSCTLTAYK (UniProt Q6P2Q9),0.00546,0.3
PRKDC_P78527_1176+1183_WLLAHCGRPQTECR (UniProt P78527),-0.397,0.166
PRKCB_P05771_132_CDTCMMNVHK (UniProt P05771),0.095,-0.102
PRKRA_O75569_106_ANASICFAVPDPLMPDPSK (UniProt O75569),-0.119,-0.533
